Test results: PubChem BioAssay AID504467 (National Center for Advancing Translational Sciences (NCATS), 2011)
In all, about 330,000 compounds went through this assay and about 7,700 (2.3%) were called active. The shares of active, inactive and inconclusive entries below differ from those in the screen. The call rests on the fitted dose curve; in most records, active means well fitted inhibition curve with a large enough effect; inconclusive means small, poorly fitted or top-dose-only effect, or effect the other way; inactive means flat fitted curve, though single readings scatter. Potencies of inconclusive entries are doubtful fits and often do not repeat.

assay: qHTS screen for small molecules that inhibit ELG1-dependent DNA repair in human embryonic kidney (HEK293T) cells expressing luciferase-tagged ELG1; conditions: HEK293T ELG1-luciferase reporter, luminescence, 16 h, DNA damage induced by 5-fluorouridine; series mostly up to 46.1 µM; further: nearly all actives have a fitted effect of over 55% in size
Summary of the method: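 DMSO vehicle served as the neutral condition. Each well held 2,000 cells given 5-fluorouridine plus compound; after 16 hr at 37 °C/5% CO2, ONE-Glo was added and luciferase measured 30 min later.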
Potency means the concentration at half of the fitted maximal effect.

Which Potency does the source give for N#Cc1ccc(Cn2c(-c3ccc(F)cc3)noc2=O)cc1 here?
The Potency was inconclusive: 1.41 µM [inhibitor, full curve, poor fit].

With O=C(CSc1ccccn1)N1CCN(c2cccc(Cl)c2)CC1 as the compound, how does the Potency read?
Its Potency is inconclusive: 23.1 µM [inhibitor, partial curve, poor fit].

For CCCCCCC1(C)NC(=S)N(c2ccccc2)N1 (stereo not given), which Potency is on record?
Its Potency is inconclusive: 3.66 µM [inhibitor, full curve].

For COc1ccc(C(=O)CSc2nnc(CNc3nc(-c4ccccc4)cs3)n2C)cc1, which Potency is on record?
Its Potency is inconclusive: 20.6 µM [inhibitor, single point].

Which Potency does the source give for COC(=O)c1cc(NC(=O)c2ccoc2C)cc(C(=O)OC)c1 here?
Its Potency is inconclusive: 18.4 µM [inhibitor, partial curve, poor fit].

Which Potency does the source give for Cc1nc(-c2ccccc2)sc1C(=O)Nc1ccc(S(N)(=O)=O)cc1 here?
The Potency was inconclusive: 23.1 µM [inhibitor, partial curve].

For CCOC(=O)c1ccc(NC(=O)Cc2cccs2)cc1, which Potency is on record?
Its Potency is inconclusive: 14.6 µM [activator, partial curve].

For Cc1cccnc1NC(=O)Nc1ccc(F)cc1, which Potency is on record?
Its Potency is inconclusive: 16.4 µM [activator, partial curve].

With CCN(Cc1ccncc1)C(=O)CSc1ccc2ccccc2c1 as the compound, how does the Potency read?
Its Potency is inconclusive: 29.1 µM [inhibitor, single point].

Which Potency does the source give for Cc1nn(-c2ccccc2)c(N)c1N=Nc1ccccc1 here?
Its Potency is inconclusive: 3.26 µM [activator, full curve].

With c1ccc(OCc2nc(-c3cccs3)no2)cc1 as the compound, how does the Potency read?
The Potency was inconclusive: 20.6 µM [activator, partial curve].

For O=C1c2cccc(OCC(=O)N3CCCc4ccccc43)c2CCN1Cc1ccc(Br)cc1, which Potency is on record?
Its Potency is active: 18.4 µM.

Which Potency does the source give for COc1ccc(C(=O)N/N=c2\oc3ccccc3cc2C(N)=O)cc1 here?
The Potency was inconclusive: 18.3 µM [inhibitor, partial curve, poor fit].

For Cc1ccc(C)c(NC(=O)CN2C(=O)NC(C)(c3ccc4c(c3)OCCO4)C2=O)c1 (stereo not given), which Potency is on record?
Its Potency is inconclusive: 0.0046 µM [activator, full curve, poor fit].

Which Potency does the source give for C=CS(=O)(=O)c1ccc(Oc2ccc(S(=O)(=O)C=C)cc2)cc1 here?
The Potency was active: 2.59 µM.

With CCOC(=O)N1CCN(C(=O)CNC(=O)c2ccc(Br)cc2)CC1 as the compound, how does the Potency read?
The Potency was “inactive”.

For N#Cc1c(-c2cccnc2)c2c([nH]c1=S)CCCC2, which Potency is on record?
Its Potency is “inactive”.

For CCN(CC)S(=O)(=O)c1ccc(S(=O)(=O)N(CC(=O)Nc2ccccc2)Cc2ccco2)cc1, which Potency is on record?
Its Potency is inconclusive: 3.66 µM [inhibitor, single point].

For Cc1cc(C)nc(/N=C(\N)Nc2cccc(OCc3ccccc3)c2)n1, which Potency is on record?
Its Potency is active: 20.6 µM.

With CCOC(=O)C(=N/O)/C(C)=N/NC(C)=O as the compound, how does the Potency read?
The Potency was “inactive”.

For CNC(=S)N/N=C(\C)c1ccc2c(c1)OCCO2, which Potency is on record?
Its Potency is inconclusive: 18.4 µM [activator, single point].

Which Potency does the source give for COn1c2c(c3c4nonc4ccc31)CCCC2 here?
Its Potency is “inactive”.

With Cc1cccc(-n2cc(CN(C)Cc3nccn3C)c(-c3cccc(F)c3)n2)c1 as the compound, how does the Potency read?
The Potency was inconclusive: 18.3 µM [inhibitor, single point].

With CC(=O)c1ccc(NC(=O)C(Cc2ccccc2)n2cccc2)cc1 (stereo not given) as the compound, how does the Potency read?
The Potency was “inactive”.

With CCOc1ccc2nc(NC(=O)C3CCCN(S(=O)(=O)c4c(C)noc4C)C3)sc2c1 (stereo not given) as the compound, how does the Potency read?
The Potency was inconclusive: 20.6 µM [inhibitor, single point].

With N#C/C(=C/c1ccc(Sc2nc3ccccc3[nH]2)o1)c1cccc(Br)c1 as the compound, how does the Potency read?
The Potency was inconclusive: 18.4 µM [inhibitor, single point].

For O=C(Nc1ccc(Br)cc1)N1CCCCC1, which Potency is on record?
The Potency was inconclusive: 29.1 µM [activator, single point].

For CC1(C)C(C=C(Cl)Cl)C1C(=O)N(Cc1cccc(Cl)c1)C1CCS(=O)(=O)C1 (stereo not given), which Potency is on record?
The Potency was “inactive”.

For Cc1ccoc1C(=O)Nc1ccc2ccccc2c1, which Potency is on record?
Its Potency is inconclusive: 1.03 µM [activator, full curve].

With N#Cc1cc(C(=O)c2ccccc2OCC(=O)Nc2ccccc2Cl)cn(C2CCCCC2)c1=O as the compound, how does the Potency read?
Its Potency is inconclusive: 20.6 µM [inhibitor, single point].

Which Potency does the source give for COc1ccc(-c2sc3cc4c(cc3c2-c2ccc3c(c2)OCCO3)OCO4)cc1 here?
The Potency was inconclusive: 23.1 µM [activator, partial curve, poor fit].

Which Potency does the source give for Cc1cc(C(=O)N2CCCC(C(=O)c3cc(F)ccc3F)C2)c(C)o1 (stereo not given) here?
Its Potency is “inactive”.

Which Potency does the source give for CC(C)O/C(=N\S(=O)(=O)c1ccc(Cl)cc1)c1ccccc1 here?
The Potency was “inactive”.

For CCOc1cc(C(=O)OCc2ccc([N+](=O)[O-])cc2)ccc1OCC(=O)N1CCOCC1, which Potency is on record?
Its Potency is inconclusive: 35.5 µM [inhibitor, single point].

For CC(NCc1ccc2c(c1)OCO2)c1ccccc1 (stereo not given), which Potency is on record?
Its Potency is “inactive”.

Which Potency does the source give for Cc1[nH]c2ccccc2c1C(=O)COC(=O)Cn1c(C(F)(F)F)nc2ccccc21 here?
The Potency was inconclusive: 20.6 µM [inhibitor, partial curve, poor fit].

With C[C@]12CCC3C(CC[C@H]4CCCC[C@]34C)C1CC[C@@]2(O)CNCCO (stereo not given in full) as the compound, how does the Potency read?
Its Potency is “inactive”.

For CC(=O)Oc1ccc(C(=O)Cc2ccc3ccccc3n2)c(O)c1C, which Potency is on record?
The Potency was inconclusive: 5.8 µM [activator, full curve].

Which Potency does the source give for CCCn1c(C)cc(C(=O)CN2C(=O)c3cccc(N)c3C2=O)c1C here?
Its Potency is inconclusive: 4.61 µM [activator, partial curve].

With CCC(=O)N1CCN(c2ccc(NC(=O)c3cccs3)cc2)CC1 as the compound, how does the Potency read?
The Potency was inconclusive: 35.5 µM [activator, single point].

Which Potency does the source give for CC(=O)Nc1ccc(NS(=O)(=O)c2cc(-c3cnc(C4CC4)o3)ccc2C)cc1 here?
Its Potency is inconclusive: 16.4 µM [inhibitor, partial curve].

For Cc1cc(C(=O)NC2=NCCS2)cs1, which Potency is on record?
The Potency was inconclusive: 5.8 µM [activator, partial curve].

Which Potency does the source give for Cc1nc2ccccn2c1C(=O)N/N=C/c1ccc2c(c1)OCO2 here?
The Potency was inconclusive: 18.4 µM [activator, partial curve].

Which Potency does the source give for CC(=O)Oc1oc(-c2ccccc2)nc1C=Nc1ccccc1 here?
Its Potency is “inactive”.

With Cc1cccc(C(=O)NNC(=O)c2ccc(Br)cc2)c1 as the compound, how does the Potency read?
Its Potency is inconclusive: 23.1 µM [activator, partial curve].

For O=C(NCc1ccc(Cl)cc1)c1ccc(COCC(F)(F)F)o1, which Potency is on record?
Its Potency is “inactive”.

Which Potency does the source give for CCN(CC)C(=O)CSc1nc2c(sc(=S)n2-c2ccccc2)c(=O)n1Cc1ccco1 here?
The Potency was active: 23.1 µM.

With C=CCn1c(C)cc(-c2csc(NC(=O)C3=COCCO3)n2)c1C as the compound, how does the Potency read?
Its Potency is inconclusive: 2.06 µM [activator, partial curve].

For COc1cc(CNc2nc3c(C)cc(C)cc3s2)ccc1O, which Potency is on record?
The Potency was “inactive”.

Which Potency does the source give for N#CC(c1ccncc1)(c1ncc(C(F)(F)F)cc1Cl)N1CCOCC1 (stereo not given) here?
The Potency was “inactive”.

Which Potency does the source give for CCn1cc(C(=O)NCc2ccccc2OC)c(=O)c2cc(S(=O)(=O)N(C)C)ccc21 here?
Its Potency is inconclusive: 25.9 µM [inhibitor, single point].

Which Potency does the source give for CC1CCN(c2ccccc2NC(=O)c2ccc([N+](=O)[O-])o2)CC1 here?
The Potency was “inactive”.

With COc1ccc(CCNC(=O)CCCc2ccccc2)cc1OC as the compound, how does the Potency read?
Its Potency is “inactive”.

With CCOC(=O)N1CCN(C(=O)c2nc3ccccc3s2)CC1 as the compound, how does the Potency read?
Its Potency is inconclusive: 23.1 µM [activator, partial curve, poor fit].

For CCOC(=O)CSc1nc(C2CC2)nc2ccccc12, which Potency is on record?
The Potency was inconclusive: 0.164 µM [inhibitor, full curve, poor fit].

Which Potency does the source give for O=C(CN(C(=O)CCC(=O)Nc1nccs1)c1cccc(F)c1)NCc1ccc2c(c1)OCO2 here?
The Potency was inconclusive: 23.1 µM [activator, partial curve, poor fit].

Which Potency does the source give for CCCOc1ccc(/C=N/Nc2ccccc2[N+](=O)[O-])c(O)c1 here?
The Potency was inconclusive: 0.184 µM [activator, partial curve].

With CC(=O)Nc1ccc2ccccc2c1 as the compound, how does the Potency read?
Its Potency is inconclusive: 20.6 µM [activator, partial curve].

Which Potency does the source give for CSc1nc2ccc3nc(NC(=O)c4ccc(C)cc4)sc3c2s1 here?
The Potency was “inactive”.

For CC(C)C[C@H](NC(=O)OC(C)(C)C)C(=O)N1CCC(C(=O)N[C@@H](Cc2c[nH]c3ccccc23)C(=O)O)CC1, which Potency is on record?
Its Potency is “inactive”.

Which Potency does the source give for C/C(=N/NC(=O)c1ccccc1)C(=O)O here?
Its Potency is inconclusive: 14.6 µM [activator, partial curve].

With COc1ccc2nc(NC(=O)Nc3ccccc3)sc2c1 as the compound, how does the Potency read?
Its Potency is inconclusive: 0.92 µM [activator, partial curve].

For CC(=O)Oc1ccc2cc(-c3nc4ccccc4n3C)c(=O)oc2c1, which Potency is on record?
The Potency was inconclusive: 7.31 µM [activator, partial curve].

For CCn1cc(Cl)c(C(=O)N2N=C(c3ccc4ccccc4c3)CC2c2ccccc2O)n1 (stereo not given), which Potency is on record?
Its Potency is inconclusive: 29.1 µM [inhibitor, single point].

For O=S(=O)(c1ccc(Cl)cc1)N1CCN(c2ncnc3sccc23)CC1, which Potency is on record?
The Potency was inconclusive: 4.11 µM [inhibitor, full curve].

For Cc1n[nH]c(C)c1C(=O)CC1(O)C(=O)N(CCc2ccccc2)c2ccc(Cl)cc21 (stereo not given), which Potency is on record?
Its Potency is inconclusive: 11.2 µM [inhibitor, single point].

With Cc1nn(CC(=O)OCC(=O)NC(C)c2ccccc2)c(C)c1[N+](=O)[O-] (stereo not given) as the compound, how does the Potency read?
The Potency was inconclusive: 32.6 µM [activator, partial curve, poor fit].

For CSc1ccc(/C=N/N2CCN(Cc3ccc(Cl)cc3)CC2)cc1, which Potency is on record?
Its Potency is inconclusive: 29.1 µM [inhibitor, single point].

Which Potency does the source give for O=C(Nc1ccncc1)c1ccc(Br)cc1 here?
The Potency was “inactive”.

Which Potency does the source give for COCCn1c(-c2ccc3ccccc3c2)nc2c1c(=O)[nH]c(=O)n2CC(C)C here?
Its Potency is inconclusive: 16.4 µM [inhibitor, partial curve].
